{"source": "paper PMC9001735", "about": "“Insights into the inhibition of type I-F CRISPR-Cas system by a multifunctional anti-CRISPR protein AcrIF24”", "assay_in_all_cases": "EMSA", "key": {"AcrIF9": {"system": "AcrIF9", "details": "AcrIF9 alone, EMSA: 20 mM HEPES pH 7.5, 150 mM NaCl, 5% glycerol, 37 C 30 min, 1 uM DNA (20 nM for Kd), recombinant protein, protein details: His6 (pET28a) when expressed alone"}, "[1]": {"system": "AcrIF24 R196A (Pseudomonas aeruginosa prophage)", "details": "EMSA: 20 mM HEPES pH 7.5, 150 mM NaCl, 5% glycerol, 37 C 30 min, 1 uM DNA (20 nM for Kd), recombinant protein, protein details: N-terminal GPLGS remnant when expressed alone"}, "[2]": {"system": "AcrIF24 K197A (Pseudomonas aeruginosa prophage)", "details": "EMSA: 20 mM HEPES pH 7.5, 150 mM NaCl, 5% glycerol, 37 C 30 min, 1 uM DNA (20 nM for Kd), recombinant protein, protein details: N-terminal GPLGS remnant when expressed alone"}, "[3]": {"system": "AcrIF24 N194A (Pseudomonas aeruginosa prophage)", "details": "EMSA: 20 mM HEPES pH 7.5, 150 mM NaCl, 5% glycerol, 37 C 30 min, 1 uM DNA (20 nM for Kd), recombinant protein, protein details: N-terminal GPLGS remnant"}, "[4]": {"system": "AcrIF24 (Pseudomonas aeruginosa prophage)", "details": "EMSA: 20 mM HEPES pH 7.5, 150 mM NaCl, 5% glycerol, 37 C 30 min, 1 uM DNA (20 nM for Kd), recombinant protein"}, "[5]": {"details": "decreased vs WT, legend: fails to interact, label: 5'-FAM or 3'-FAM, unlabelled as competitor"}, "[6]": {"details": "decreased vs WT, legend: fails to interact"}}, "note": "The exact form of at least one protein or probe is not confirmed. For some of these results: Negatives hold for the conditions tested. For some of these results: The comparison behind a weaker result is the experiment's own reference, which may not be listed here. For some of these results: At least one verdict was read from the data and is not stated in words by the source."}
{"sequence": "GAGCGACTACGACATGAGCGCGCAGCTAAGACCGCCCGTAGATGCGTCGAGCGT (double strand) [dsDNANS 54 bp]", "values": [{"measurement": "binding result", "setting": "AcrIF9; label: 5'-FAM or 3'-FAM, unlabelled as competitor", "value": "no binding"}, {"measurement": "binding result", "setting": "[1]; [5]", "value": "binds more weakly"}, {"measurement": "binding result", "setting": "[2]; [5]", "value": "binds more weakly"}, {"measurement": "binding result", "setting": "[3]; same weak binding as WT AcrIF24, label: 5'-FAM or 3'-FAM, unlabelled as competitor", "value": "binds more weakly"}]}
{"sequence": "GCATAGCTCGATCCGAGCTAGTA (double strand) [IR23-24 WT]", "values": [{"measurement": "binding result", "setting": "[1]; label: 5'-FAM", "value": "binds more weakly"}, {"measurement": "binding result", "setting": "[2]; label: 5'-FAM", "value": "binds more weakly"}, {"measurement": "binding result", "setting": "[3]; label: 5'-FAM", "value": "binds more weakly"}]}
{"sequence": "GGAAGCCATCCAGGTAGACGCGGACATCAAGCCCGCCGTGAAGGTGCAGCTGCT (double strand) [dsDNASP 54 bp]", "values": [{"measurement": "binding result", "setting": "AcrIF9", "value": "no binding"}, {"measurement": "binding result", "setting": "[4]", "value": "binds more weakly"}, {"measurement": "binding result", "setting": "[1]; [6]", "value": "binds more weakly"}, {"measurement": "binding result", "setting": "[2]; [6]", "value": "binds more weakly"}, {"measurement": "binding result", "setting": "[3]; same weak binding as WT AcrIF24", "value": "binds more weakly"}]}
{"sequence": "GCAAAGGTCCATCGGACCTTGTA (double strand) [IR23-24 mutated]", "values": [{"measurement": "binding result", "setting": "[4]; label: 5'-FAM", "value": "binds more weakly"}]}
